System: hSKI complex WT (hSKI2-hSKI3-hSKI8, two hSKI8 copies) (Homo sapiens)
Assay: cryo-EM structure
Details: ADP-BeF, closed state, 6 nt (N1-N6) resolved in hSKI2 helicase core; hSKI storage buffer 20 mM Hepes pH 7.5, 100 mM NaCl; recombinant protein

## UUUUUUUUUUUUUUUUUUUUUUUUU [25U RNA]
  binding result: binds

Source: paper PMC8860381 (Molecular Cell, 2022)
